Results are given in words; binding and its absence hold for the method and conditions named. In cells and extracts the contact can be indirect. Some entries that bind do so weakly or less than the wild type.

Sequences of proteins named here, by UniProt entry; tags and fusion partners are left off.
UniProt Q9NR12: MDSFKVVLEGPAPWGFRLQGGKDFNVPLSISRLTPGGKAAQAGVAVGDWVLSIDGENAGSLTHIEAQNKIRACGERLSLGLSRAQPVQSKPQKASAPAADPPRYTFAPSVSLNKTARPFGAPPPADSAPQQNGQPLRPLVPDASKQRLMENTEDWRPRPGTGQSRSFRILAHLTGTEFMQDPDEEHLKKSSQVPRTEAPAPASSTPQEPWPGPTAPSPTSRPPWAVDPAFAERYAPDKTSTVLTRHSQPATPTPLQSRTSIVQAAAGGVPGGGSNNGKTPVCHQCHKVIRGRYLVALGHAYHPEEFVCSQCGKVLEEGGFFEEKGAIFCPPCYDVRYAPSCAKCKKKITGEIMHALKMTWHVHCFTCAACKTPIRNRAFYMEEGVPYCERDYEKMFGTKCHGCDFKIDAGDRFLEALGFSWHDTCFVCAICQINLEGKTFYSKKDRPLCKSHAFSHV
UniProt Q9Y3P9: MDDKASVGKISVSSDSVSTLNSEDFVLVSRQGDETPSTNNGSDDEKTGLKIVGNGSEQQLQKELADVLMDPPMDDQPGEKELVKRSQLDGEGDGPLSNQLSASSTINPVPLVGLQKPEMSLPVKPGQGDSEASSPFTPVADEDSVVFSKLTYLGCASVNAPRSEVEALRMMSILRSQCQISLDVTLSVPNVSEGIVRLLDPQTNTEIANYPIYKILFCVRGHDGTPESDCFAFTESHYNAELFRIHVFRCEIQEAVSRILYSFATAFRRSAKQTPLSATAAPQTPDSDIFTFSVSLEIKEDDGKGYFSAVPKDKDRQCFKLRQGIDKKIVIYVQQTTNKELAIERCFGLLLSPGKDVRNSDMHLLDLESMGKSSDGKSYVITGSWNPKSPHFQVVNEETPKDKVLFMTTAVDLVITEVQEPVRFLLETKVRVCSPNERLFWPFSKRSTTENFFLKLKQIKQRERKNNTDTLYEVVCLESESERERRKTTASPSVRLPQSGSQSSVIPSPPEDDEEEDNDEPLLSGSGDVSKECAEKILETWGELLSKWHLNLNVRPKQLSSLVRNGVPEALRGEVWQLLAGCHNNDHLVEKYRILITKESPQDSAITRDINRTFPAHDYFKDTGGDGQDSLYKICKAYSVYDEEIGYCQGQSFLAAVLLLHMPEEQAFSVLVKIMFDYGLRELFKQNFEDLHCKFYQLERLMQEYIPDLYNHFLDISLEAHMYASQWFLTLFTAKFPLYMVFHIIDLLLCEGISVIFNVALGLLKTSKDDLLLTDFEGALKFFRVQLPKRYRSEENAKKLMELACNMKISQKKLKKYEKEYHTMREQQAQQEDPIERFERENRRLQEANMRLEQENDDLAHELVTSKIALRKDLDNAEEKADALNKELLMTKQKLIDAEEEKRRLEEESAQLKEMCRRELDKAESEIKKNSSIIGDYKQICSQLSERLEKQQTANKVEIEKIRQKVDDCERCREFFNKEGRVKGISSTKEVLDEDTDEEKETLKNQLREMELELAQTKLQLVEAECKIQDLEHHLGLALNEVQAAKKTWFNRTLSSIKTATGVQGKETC

Drawing on doi:10.1101/2024.07.11.602925, this text covers binding for 3 molecules.

Holding throughout (experiment): pull-down
The target of test [1] is GST fused to the WT cytosolic tail of APP (649-695) (UniProt P05067).
Test [2] has as its target GST fused to the APP cytosolic tail mutant Y682A (UniProt P05067).
Test [3] deals with GST fused to the APP cytosolic tail mutant FFE689-9AAA (UniProt P05067).
In test [4] the target is GST fused to the APP cytosolic tail mutant Y687A (UniProt P05067).
In test [5] the target is GST fused to the APP cytosolic tail mutant N684A (UniProt P05067).
In test [6] the target is GST fused to the APP cytosolic tail mutant D664A (UniProt P05067).

Turning to PDLIM7 (from UniProt Q9NR12 1-457), the binding result in test [1], in test [2], in test [3], in test [4], in test [5] and in test [6] was “binds” in each case.

As for RABGAP1 (from UniProt Q9Y3P9 1-1069), the binding result in test [1] is “binds”; in test [2], “no binding”; in test [4], “no binding”; in test [5] it was “no binding”.

B1: NUMB (protein, UniProt P49757 1-651)
chain: MNKLRQSFRRKKDVYVPEASRPHQWQTDEEGVRTGKCSFPVKYLGHVEVDESRGMHICEDAVKRLKAERKFFKGFFGKTGKKAVKAVLWVSADGLRVVDEKTKDLIVDQTIEKVSFCAPDRNFDRAFSYICRDGTTRRWICHCFMAVKDTGERLSHAVGCAFAACLERKQKREKECGVTATFDASRTTFTREGSFRVTTATEQAEREEIMKQMQDAKKAETDKIVVGSSVAPGNTAPSPSSPTSPTSDATTSLEMNNPHAIPRRHAPIEQLARQGSFRGFPALSQKMSPFKRQLSLRINELPSTMQRKTDFPIKNAVPEVEGEAESISSLCSQITNAFSTPEDPFSSAPMTKPVTVVAPQSPTFQANGTDSAFHVLAKPAHTALAPVAMPVRETNPWAHAPDAANKEIAATCSGTEWGQSSGAASPGLFQAGHRRTPSEADRWLEEVSKSVRAQQPQASAAPLQPVLQPPPPTAISQPASPFQGNAFLTSQPVPVGVVPALQPAFVPAQSYPVANGMPYPAPNVPVVGITPSQMVANVFGTAGHPQAAHPHQSPSLVRQQTFPHYEASSATTSPFFKPPAQHLNGSAAFNGVDDGRLASADRHTEVPTGTCPVDPFEAQWAALENKSKQRTNPSPTNPFSSDLQKTFEIEL
For B1, the binding entry in test [1] is listed as “binds”; in test [2] it was “no binding”; in test [4], “no binding”; in test [5] it was “no binding”; in test [6] it was “no binding”.
